The supplement of paper PMC6289059
Several values for one entry are separate records, joined by “and”; a condition that tells them apart may be missing. Equal values may be shown once. The list shows a part of the results. Repeats are few or missing, and single values can be far off.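 Hepatocyte-like cells derived from human stem cells with CRISPR-disrupted DGUOK model liver mtDNA depletion syndrome. Each well's ATP signal was scored against other wells on the same plate, and drugs scoring 3 or above were primary hits.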

These compounds were tested on DGUOK Δ14/Δ5 iPSC-derived hepatocyte-like cells (SV20) (assay: ATP level (CellTiter-Glo luminescence) Z score relative to plate distribution, under 2-DG glycolysis block; higher = more cellular ATP (rescue of mitochondrial ATP production)). Settings: 5 µM; treatment time: day 15 to day 20 of differentiation (5 days); 2-deoxy-D-glucose: 20 mM for 24 h before assay.
In the case of `O=c1cc(-c2ccccc2)oc2cc(O)ccc12`, the ATP level is reported as inactive: 0.35.
For `Cc1cc(=O)oc2cc(O)cc(O)c12`, the ATP level was inactive: 0.797.
With `CC(=O)Oc1ccccc1C(=O)O` the ATP level was inactive: 0.272.
With `CC1=C(/C=C/C(C)=C/C=C/C(C)=C/C=C/C=C(C)/C=C/C=C(C)/C=C/C2=C(C)C(=O)[C@@H](O)CC2(C)C)C(C)(C)C[C@H](O)C1=O` the ATP level was inactive: 0.572.
In the case of `N=C(N)NS(=O)(=O)c1ccc(N)cc1`, the ATP level is reported as inactive: 0.549.
For `NC[C@@H]1CC[C@@H](N)[C@@H](O[C@H]2[C@H](O)[C@@H](O[C@H]3O[C@H](CO)[C@@H](O)[C@H](N)[C@H]3O)[C@H](N)C[C@@H]2N)O1`, the ATP level was inactive: 1.61.
For `CC1=C(/C=C/C(C)=C/C=C/C(C)=C/C(=O)O)C(C)(C)CCC1`, the ATP level was inactive: 2.53.
For `CCc1c(C)[nH]c2c1C(=O)C(CN1CCOCC1)CC2` (centres undefined), the ATP level was inactive: 2.58.
`COC(=O)C1OC(=O)C2OC23C1(C)CCC1C2(C)C(OC(C)=O)CC(OC(C)=O)C(C)(C)C2CC(O)C13C` (centres undefined) was tested, and the ATP level was inactive: 1.84.
In the case of `COc1cc(C(=O)NCCCCCC(=O)O)cc(OC)c1OC`, the ATP level is reported as inactive: 2.33.
`N[C@@H](CCC(=O)N[C@@H](CS)C(=O)NCC(=O)O)C(=O)O` was tested, and the ATP level was inactive: -0.329.
In the case of `CC1=C(C(=O)O)N2C(=O)[C@@H](NC(=O)[C@H](N)C3=CCC=CC3)[C@H]2SC1`, the ATP level is reported as inactive: -11.1.
`CCC1(c2ccccc2)NC(=O)N(C)C1=O` (centres undefined) was tested, and the ATP level was inactive: 2.46.
In the case of `COc1cc2c3cc1Oc1cc(ccc1O)C[C@@H]1c4c(cc(OC)c(O)c4Oc4ccc(cc4)C[C@@H]3N(C)CC2)CC[N+]1(C)C`, the ATP level is reported as inactive: -11.1.
With `Cc1ncc(CO)c(CO)c1O` the ATP level was inactive: 1.88.
With `C#C[C@]1(OC(C)=O)CC[C@H]2[C@@H]3CCC4=CC(=NO)CC[C@@H]4[C@H]3CC[C@@]21CC` (mixture of isomers) the ATP level was inactive: 0.325.
`O=C1c2ccccc2C(=O)C1c1ccc(Cl)cc1` was tested, and the ATP level was active: 3.86.
`CC(=O)O[C@]1(C(C)=O)CC[C@H]2[C@@H]3C=C(Cl)C4=CC(=O)[C@@H]5C[C@@H]5[C@]4(C)[C@H]3CC[C@@]21C` was tested, and the ATP level was inactive: -8.62.
`Clc1ccc(CO/N=C(\Cn2ccnc2)c2ccc(Cl)cc2Cl)c(Cl)c1` was tested, and the ATP level was inactive: -4.9.
`N[C@@H]1CONC1=O` was tested, and the ATP level was inactive: -0.851.
With `CCCCCCCCCCCCCCCC(=O)OC[C@@H](NC(=O)C(Cl)Cl)[C@H](O)c1ccc([N+](=O)[O-])cc1` the ATP level was inactive: -4.56.
For `COc1cc2nc(N(C)CCCNC(=O)C3CCCO3)nc(N)c2cc1OC` (centres undefined), the ATP level was inactive: -1.47.
With `Clc1ccc(Cn2c(CN3CCCC3)nc3ccccc32)cc1` the ATP level was inactive: -2.98.
With `O=C(O)/C=C/c1ccc(O)c(O)c1` the ATP level was inactive: 1.71.
For `N[C@@H](Cc1cc(I)c(Oc2cc(I)c(O)c(I)c2)c(I)c1)C(=O)O`, the ATP level was inactive: 0.627.
`Cc1cc(=O)oc2cc(O)c(O)cc12` was tested, and the ATP level was inactive: 1.79.
For `COc1cc(O)c(C(C)=O)c(O)c1`, the ATP level was inactive: 0.744.
In the case of `N=C(N)NC(=O)Cc1c(Cl)cccc1Cl`, the ATP level is reported as inactive: 1.46.
For `COc1cc(O)c(C(=O)c2ccccc2)cc1S(=O)(=O)O`, the ATP level was inactive: 0.849.
For `COc1cc(OC)c2c(=O)c(O)c(-c3ccc(OC)c(OC)c3)oc2c1`, the ATP level was inactive: 0.0536.
With `O=C(O)CCCCCCCCCCCC[C@@H]1C=CCC1` the ATP level was inactive: 0.761.
For `CNCc1ccccc1`, the ATP level was inactive: -1.39.
For `CN1C(=O)CC(c2ccccc2)C1=O` (centres undefined), the ATP level was inactive: 1.46.
With `CC(O)C(=O)O.N` (centres undefined) the ATP level was active: 3.92.
With `C=C(C)CCCC(C)CCOC(C)=O` (centres undefined) the ATP level was inactive: -1.4.
In the case of `CN(C)CCN(Cc1ccccc1)c1ccccn1`, the ATP level is reported as inactive: -1.11.
`CC(=O)O[C@@]12CO[C@@H]1C[C@H](O)[C@@]1(C)C(=O)[C@H](O)C3=C(C)[C@@H](OC(=O)[C@H](O)[C@@H](NC(=O)OC(C)(C)C)c4ccccc4)C[C@@](O)([C@@H](OC(=O)c4ccccc4)[C@H]21)C3(C)C` was tested, and the ATP level was inactive: 0.0317.
`Nc1ncnc2c1ncn2[C@@H]1O[C@H](CO)[C@@H](O)[C@H]1O` was tested, and the ATP level was inactive: 0.886.
`Clc1ccc(CSC(Cn2ccnc2)c2ccc(Cl)cc2Cl)cc1` (centres undefined) was tested, and the ATP level was inactive: 1.18.
`C[n+]1cc2c3c(ccc2c2ccc4cc5c(cc4c21)OCO5)OCO3` was tested, and the ATP level was inactive: -14.7.
`COc1ccc2c(c1)OCC(Cc1ccc(O)c(OC)c1)C2=O` (centres undefined) was tested, and the ATP level was inactive: -4.44.
In the case of `C[C@]12CC[C@@H]3c4ccc(O)cc4CC[C@H]3[C@@H]1CC[C@@H]2O`, the ATP level is reported as inactive: -0.518.
In the case of `CCCN(CCC)S(=O)(=O)c1ccc(C(=O)O)cc1`, the ATP level is reported as inactive: 1.93.
With `CCN(CC)C(=O)c1cccc(C)c1` the ATP level was active: 5.31.
For `CCN(CC)C(=O)c1cccnc1`, the ATP level was inactive: 2.82.
With `COc1ccc2[nH]c([S+]([O-])Cc3ncc(C)c(OC)c3C)nc2n1` (centres undefined) the ATP level was inactive: -3.55.
With `CN(C)CCOC(c1ccccc1)c1ccccc1` the ATP level was inactive: -4.91.
`C=CCCCCCCCCCCCc1ccco1` was tested, and the ATP level was inactive: -0.501.
`CC(=O)[C@H]1CC[C@H]2[C@@H]3CCC4=CC(=O)CC[C@]4(C)[C@H]3CC[C@]12C` was tested, and the ATP level was inactive: -4.16.
`CC(=O)O[C@H]1C[C@@H](OC(C)=O)C(C)(C)[C@@H]2C[C@@H](OC(C)=O)[C@]3(C)[C@H](CC[C@@]4(C)[C@H](c5ccoc5)OC(=O)[C@H]5O[C@@]534)[C@@]12C` was tested, and the ATP level was inactive: 1.47.
For `CN(C)CC/C=C1/c2ccccc2Sc2ccc(Cl)cc21`, the ATP level was inactive: -6.49.
In the case of `CC1(C)C(=O)C=C[C@]2(C)[C@H]3CC[C@@]4(C)[C@H](c5ccoc5)OC(=O)[C@H]5O[C@]54[C@]3(C)C(=O)C[C@@H]12`, the ATP level is reported as inactive: 0.0261.
With `CNCCCC1c2ccccc2C=Cc2ccccc21` the ATP level was inactive: -7.59.
For `CCOC(=O)C1=C[C@@H](OC(CC)CC)[C@H](NC(C)=O)[C@@H](N)C1`, the ATP level was inactive: -0.802 and inactive: -0.0931.
With `C[C@]12CCC(=O)C=C1CC[C@@H]1[C@@H]2[C@@H](O)C[C@@]2(C)[C@H]1CC[C@]2(O)C(=O)CO` the ATP level was inactive: -1.22.
For `Oc1ncnc2[nH]ncc12`, the ATP level was inactive: 1.15.
`c1ccc2c(Cc3c[nH]c4ccccc34)c[nH]c2c1` was tested, and the ATP level was inactive: -3.58.
With `CO/N=C(\C(=O)N[C@@H]1C(=O)N2C(C(=O)OCOC(=O)C(C)(C)C)=C(/C=C\c3scnc3C)CS[C@H]12)c1csc(N)n1` the ATP level was active: 3.77.
For `CN(N=O)C(=O)N[C@H]1C(O)O[C@H](CO)[C@@H](O)[C@@H]1O` (mixture of isomers), the ATP level was inactive: -0.279.
For `CCCc1cc(=O)[nH]c(=S)[nH]1`, the ATP level was inactive: 0.182.
In the case of `COc1ccc2oc(-c3ccccc3OC)cc(=O)c2c1`, the ATP level is reported as inactive: 0.326.
With `CN1CCc2c(c3ccccc3n2Cc2ccccc2)C1` the ATP level was inactive: -6.12.
`Fc1ccc(C(c2ccc(F)cc2)N2CCN(C/C=C/c3ccccc3)CC2)cc1` was tested, and the ATP level was inactive: 0.822.
`Cc1ccc(Nc2c(F)cccc2Cl)c(CC(=O)O)c1` was tested, and the ATP level was inactive: 2.33.
With `CC(=O)Nc1cc2ccccc2oc1=O` the ATP level was inactive: -0.557.
`COc1ccc(/C=C/C(=O)O)cc1OC` was tested, and the ATP level was inactive: -2.53.
With `CCCCC(=O)O[C@H]1CC[C@H]2[C@@H]3CCc4cc(O)ccc4[C@H]3CC[C@]12C` the ATP level was inactive: 0.0832.
`N=C(N)c1ccc(OCCCCCOc2ccc(C(=N)N)cc2)cc1` was tested, and the ATP level was inactive: -8.8.
In the case of `O=C(OC[C@H]1O[C@@H](OC(=O)c2cc(O)c(O)c(OC(=O)c3cc(O)c(O)c(O)c3)c2)[C@H](OC(=O)c2cc(O)c(O)c(OC(=O)c3cc(O)c(O)c(O)c3)c2)[C@@H](OC(=O)c2cc(O)c(O)c(OC(=O)c3cc(O)c(O)c(O)c3)c2)[C@@H]1OC(=O)c1cc(O)c(O)c(OC(=O)c2cc(O)c(O)c(O)c2)c1)c1cc(O)c(O)c(OC(=O)c2cc(O)c(O)c(O)c2)c1`, the ATP level is reported as active: 4.23.
`Cc1cc(O)c(C)c(O)c1C(=O)O` was tested, and the ATP level was inactive: 0.947.
`OCCOCCN1CCN(C2=Nc3ccccc3Sc3ccccc32)CC1` was tested, and the ATP level was inactive: -0.329.
`COc1cccc2c1C(=O)c1c(O)c3c(c(O)c1C2=O)C[C@@](O)(C(=O)CO)C[C@@H]3O[C@H]1C[C@H](N)[C@H](O)[C@H](C)O1` was tested, and the ATP level was active: 4.43.
`NC(=O)SC[C@H](N)C(=O)O` was tested, and the ATP level was inactive: 0.525.
With `COc1cc(-c2coc3cc(OCc4ccccc4)c(OC)c(O)c3c2=O)cc(OCc2ccccc2)c1OC` the ATP level was inactive: -6.14.
In the case of `Cc1cccc(C(=O)O)c1O`, the ATP level is reported as inactive: 0.622.
In the case of `Cc1ccc2c(Br)cc(Br)c(OC(=O)c3ccccc3)c2n1`, the ATP level is reported as inactive: 2.51.
`CN[C@@H]1[C@H](O[C@H]2[C@H](O[C@H]3[C@H](O)[C@@H](O)[C@H](N=C(N)N)[C@@H](O)[C@@H]3N=C(N)N)O[C@@H](C)[C@]2(O)C=O)O[C@@H](CO)[C@H](O)[C@H]1O` was tested, and the ATP level was inactive: 0.553.
In the case of `COC(=O)Nc1nc2cc(C(=O)c3ccccc3)ccc2[nH]1`, the ATP level is reported as inactive: -5.75.
For `CC1(C)S[C@@H]2[C@H](NC(=O)[C@H](NC(=O)N3CCNC3=O)c3ccccc3)C(=O)N2[C@H]1C(=O)O`, the ATP level was inactive: -28.2.
`COc1c(-c2coc3cc4c(cc3c2=O)CC(OC(C)=O)C(C)(C)O4)ccc2c1C=CC(C)(C)O2` (centres undefined) was tested, and the ATP level was inactive: -3.48.
In the case of `CC(C)c1ccc2oc3nc(N)c(C(=O)O)cc3c(=O)c2c1`, the ATP level is reported as inactive: 2.72.
With `CCCCCCCCCc1ccc(OCCOCCOCCOCCOCCOCCOCCOCCOCCO)cc1` the ATP level was active: 4.83.
For `NC(=O)c1cc[n+](CC2=C(C(=O)O)N3C(=O)[C@@H](NC(=O)[C@@H](c4ccccc4)S(=O)(=O)[O-])[C@H]3SC2)cc1`, the ATP level was inactive: -0.177.
With `CCCCCCc1ccc(O)cc1O.Nc1c2ccccc2nc2ccccc12` the ATP level was active: 10.8.
